PubChem BioAssay AID1159599, NIAID – 2016

Aim: 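Effect of knocking down TLR signalling components on Tnf reporter after LPS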
System: mouse RAW264.7 G9 macrophage reporter clone cells
Knock-down reagent: single siRNA against mouse genes
Duration: 48 to 72 h after siRNA transfection, LPS for the last 16 h
Conditions: LPS (Salmonella minnesota R595), 16 h before fixation; dose not stated
Detection: 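Nuclear mCherry from a Tnf promoter reporter imaged after LPS, background removed, robust z-score from per-plate median and MAD, averaged over replicates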
Reading the numbers: Tnf reporter z-score: higher = stronger Tnf promoter reporter signal after LPS
Rule for the call: 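Called active if the mean z-score over replicates passes 1.5 in either direction, up or down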
Calls: active = strong change either way; inactive = little change
In all, the deposit lists 756 reagents; this is a random part of them. In the full data, 130 (17%) are marked active. 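Calls are two-sided: actives include siRNAs that raised the Tnf reporter as well as ones that lowered it.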 A number with no mark means an inactive call. The numbers tell different reagents against one gene apart. Not given: the amount of reagent.

no.	target	siRNA no.	Tnf reporter z-score, replicate mean
1	Tbk1 (GeneID 56480)	1	-0.114
2	Tbk1 (GeneID 56480)	2	0.112
3	Tbk1 (GeneID 56480)	3	-0.149
4	Tbk1 (GeneID 56480)	4	0.982
5	Tbk1 (GeneID 56480)	5	0.0227
6	Tbk1 (GeneID 56480)	6	1.23
7	Cd14 (GeneID 12475)	1	-1.76 (active)
8	Cd14 (GeneID 12475)	2	-2.08 (active)
9	Cd14 (GeneID 12475)	3	-1.69 (active)
10	Cd14 (GeneID 12475)	4	0.342
11	Cd14 (GeneID 12475)	5	-1.85 (active)
12	Cd14 (GeneID 12475)	6	0.107
13	Map3k1 (GeneID 26401)	1	-0.148
14	Map3k1 (GeneID 26401)	2	-2.4 (active)
15	Map3k1 (GeneID 26401)	3	0.492
16	Map3k1 (GeneID 26401)	4	1.18
17	Map3k1 (GeneID 26401)	5	-0.309
18	Map3k1 (GeneID 26401)	6	0.196
19	Rel (GeneID 19696)	1	-0.528
20	Rel (GeneID 19696)	2	-0.127
21	Rel (GeneID 19696)	3	-0.306
22	Rel (GeneID 19696)	4	-0.387
23	Rel (GeneID 19696)	5	-0.842
24	Rel (GeneID 19696)	6	-1.01
25	Irf7 (GeneID 54123)	1	-1.84 (active)
26	Irf7 (GeneID 54123)	2	-0.638
27	Irf7 (GeneID 54123)	3	-0.245
28	Irf7 (GeneID 54123)	4	0.861
29	Irf7 (GeneID 54123)	5	-0.0683
30	Irf7 (GeneID 54123)	6	0.147
31	Tirap (GeneID 117149)	1	-1.05
32	Tirap (GeneID 117149)	2	-0.948
33	Tirap (GeneID 117149)	3	-1.95 (active)
34	Tirap (GeneID 117149)	4	-1.9 (active)
35	Tirap (GeneID 117149)	5	-0.86
36	Tirap (GeneID 117149)	6	-2.55 (active)
37	Tab1 (GeneID 66513)	1	0.929
38	Tab1 (GeneID 66513)	2	-2.27 (active)
39	Tab1 (GeneID 66513)	3	-0.732
40	Tab1 (GeneID 66513)	4	-1.55 (active)
41	Tab1 (GeneID 66513)	5	2.19 (active)
42	Tab1 (GeneID 66513)	6	-1.43
43	Fos (GeneID 14281)	1	-1.11
44	Fos (GeneID 14281)	2	-0.74
45	Fos (GeneID 14281)	3	1.07
46	Fos (GeneID 14281)	4	-0.502
47	Fos (GeneID 14281)	5	-0.604
48	Fos (GeneID 14281)	6	0.0591
49	Ifnar1 (GeneID 15975)	1	-1.03
50	Ifnar1 (GeneID 15975)	2	-1.26
51	Ifnar1 (GeneID 15975)	3	-0.703
52	Ifnar1 (GeneID 15975)	4	1.68 (active)
53	Ifnar1 (GeneID 15975)	5	-1.08
54	Ifnar1 (GeneID 15975)	6	-1.05
55	Tlr2 (GeneID 24088)	1	0.103
56	Tlr2 (GeneID 24088)	2	-0.346
57	Tlr2 (GeneID 24088)	3	1.38
58	Tlr2 (GeneID 24088)	4	0.924
59	Tlr2 (GeneID 24088)	5	-1.05
60	Tlr2 (GeneID 24088)	6	0.0604

14 successive entries from above, for reference:
no.	target	siRNA no.	Tnf reporter z-score, replicate mean
47	Fos (GeneID 14281)	5	-0.604
48	Fos (GeneID 14281)	6	0.0591
49	Ifnar1 (GeneID 15975)	1	-1.03
50	Ifnar1 (GeneID 15975)	2	-1.26
51	Ifnar1 (GeneID 15975)	3	-0.703
52	Ifnar1 (GeneID 15975)	4	1.68 (active)
53	Ifnar1 (GeneID 15975)	5	-1.08
54	Ifnar1 (GeneID 15975)	6	-1.05
55	Tlr2 (GeneID 24088)	1	0.103
56	Tlr2 (GeneID 24088)	2	-0.346
57	Tlr2 (GeneID 24088)	3	1.38
58	Tlr2 (GeneID 24088)	4	0.924
59	Tlr2 (GeneID 24088)	5	-1.05
60	Tlr2 (GeneID 24088)	6	0.0604

Continued:
no.	target	siRNA no.	Tnf reporter z-score, replicate mean
61	Casp8 (GeneID 12370)	1	-0.61
62	Casp8 (GeneID 12370)	2	-1.21
63	Casp8 (GeneID 12370)	3	0.131
64	Casp8 (GeneID 12370)	4	0.37
65	Casp8 (GeneID 12370)	5	0.776
66	Casp8 (GeneID 12370)	6	0.918
67	Arf6 (GeneID 11845)	1	-0.735
68	Arf6 (GeneID 11845)	2	0.938
69	Arf6 (GeneID 11845)	3	0.641
70	Arf6 (GeneID 11845)	4	1.07
71	Arf6 (GeneID 11845)	5	2.3 (active)
72	Arf6 (GeneID 11845)	6	1.82 (active)
73	Chuk (GeneID 12675)	1	0.886
74	Chuk (GeneID 12675)	2	-1.2
75	Chuk (GeneID 12675)	3	1.34
76	Chuk (GeneID 12675)	4	-2.26 (active)
77	Chuk (GeneID 12675)	5	-1.23
78	Chuk (GeneID 12675)	6	-0.22
79	Il6 (GeneID 16193)	1	0.427
80	Il6 (GeneID 16193)	2	-0.891
81	Il6 (GeneID 16193)	3	0.639
82	Il6 (GeneID 16193)	4	-0.747
83	Il6 (GeneID 16193)	5	0.503
84	Il6 (GeneID 16193)	6	-0.00514
85	Map3k8 (GeneID 26410)	1	-0.0213
86	Map3k8 (GeneID 26410)	2	0.804
87	Map3k8 (GeneID 26410)	3	-1
88	Map3k8 (GeneID 26410)	4	0.543
89	Map3k8 (GeneID 26410)	5	-0.0518
90	Map3k8 (GeneID 26410)	6	-1.24
91	Itgax (GeneID 16411)	1	1.58 (active)
92	Itgax (GeneID 16411)	2	-0.298
93	Itgax (GeneID 16411)	3	-0.919
94	Itgax (GeneID 16411)	4	0.275
95	Itgax (GeneID 16411)	5	-0.165
96	Itgax (GeneID 16411)	6	-0.456
97	Tab3 (GeneID 66724)	1	-0.434
98	Tab3 (GeneID 66724)	2	-0.256
99	Tab3 (GeneID 66724)	3	-0.885
100	Tab3 (GeneID 66724)	4	0.767
101	Tab3 (GeneID 66724)	5	-0.252
102	Tab3 (GeneID 66724)	6	-0.0927
103	Pik3cb (GeneID 74769)	1	1.56 (active)
104	Pik3cb (GeneID 74769)	2	-0.998
105	Pik3cb (GeneID 74769)	3	-1.3
106	Pik3cb (GeneID 74769)	4	-0.379
107	Pik3cb (GeneID 74769)	5	-2.54 (active)
108	Pik3cb (GeneID 74769)	6	-1.68 (active)
109	Ifnb1 (GeneID 15977)	1	1.55 (active)
110	Ifnb1 (GeneID 15977)	2	-1.64 (active)
111	Ifnb1 (GeneID 15977)	3	-1.07
112	Ifnb1 (GeneID 15977)	4	1.72 (active)
113	Ifnb1 (GeneID 15977)	5	-1.77 (active)
114	Ifnb1 (GeneID 15977)	6	-0.777
